Reference: publication PMC3516556
These are yes or no findings as the source states them, for the method shown. For some of these results: Binding seen in cells or lysates may run through a third protein. Some results given as binding are weak or reduced against the parent protein; the word gives no strength. For some of these results: Tags and fused reporters may be left off the sequences shown.

By UniProt entry, the sequences of proteins in these tests, tags left out. Residues count along the entry.
UniProt P42260, residues 32-908: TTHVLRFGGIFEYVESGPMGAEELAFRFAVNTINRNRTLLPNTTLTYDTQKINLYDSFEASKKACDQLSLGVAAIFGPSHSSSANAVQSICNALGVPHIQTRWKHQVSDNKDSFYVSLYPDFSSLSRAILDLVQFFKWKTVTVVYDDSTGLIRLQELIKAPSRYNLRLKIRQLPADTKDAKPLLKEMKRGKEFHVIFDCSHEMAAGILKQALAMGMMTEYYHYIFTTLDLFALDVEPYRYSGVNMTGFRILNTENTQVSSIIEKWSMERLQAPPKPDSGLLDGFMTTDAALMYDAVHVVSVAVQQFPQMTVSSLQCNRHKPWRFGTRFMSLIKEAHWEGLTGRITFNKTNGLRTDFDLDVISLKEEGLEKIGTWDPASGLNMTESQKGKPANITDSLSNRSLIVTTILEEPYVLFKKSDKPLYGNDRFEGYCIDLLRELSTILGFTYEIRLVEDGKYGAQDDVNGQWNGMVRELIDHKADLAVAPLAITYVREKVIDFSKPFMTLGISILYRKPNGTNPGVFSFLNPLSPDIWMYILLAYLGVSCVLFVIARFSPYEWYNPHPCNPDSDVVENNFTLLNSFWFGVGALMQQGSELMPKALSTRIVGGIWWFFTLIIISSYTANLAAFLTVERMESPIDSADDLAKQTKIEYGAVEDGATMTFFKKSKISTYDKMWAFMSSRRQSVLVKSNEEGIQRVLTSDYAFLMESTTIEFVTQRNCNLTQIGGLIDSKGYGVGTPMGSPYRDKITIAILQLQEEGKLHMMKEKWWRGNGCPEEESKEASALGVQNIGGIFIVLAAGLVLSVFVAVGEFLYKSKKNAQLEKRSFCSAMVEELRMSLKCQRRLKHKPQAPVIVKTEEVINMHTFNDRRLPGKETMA
UniProt P39087, residues 32-908: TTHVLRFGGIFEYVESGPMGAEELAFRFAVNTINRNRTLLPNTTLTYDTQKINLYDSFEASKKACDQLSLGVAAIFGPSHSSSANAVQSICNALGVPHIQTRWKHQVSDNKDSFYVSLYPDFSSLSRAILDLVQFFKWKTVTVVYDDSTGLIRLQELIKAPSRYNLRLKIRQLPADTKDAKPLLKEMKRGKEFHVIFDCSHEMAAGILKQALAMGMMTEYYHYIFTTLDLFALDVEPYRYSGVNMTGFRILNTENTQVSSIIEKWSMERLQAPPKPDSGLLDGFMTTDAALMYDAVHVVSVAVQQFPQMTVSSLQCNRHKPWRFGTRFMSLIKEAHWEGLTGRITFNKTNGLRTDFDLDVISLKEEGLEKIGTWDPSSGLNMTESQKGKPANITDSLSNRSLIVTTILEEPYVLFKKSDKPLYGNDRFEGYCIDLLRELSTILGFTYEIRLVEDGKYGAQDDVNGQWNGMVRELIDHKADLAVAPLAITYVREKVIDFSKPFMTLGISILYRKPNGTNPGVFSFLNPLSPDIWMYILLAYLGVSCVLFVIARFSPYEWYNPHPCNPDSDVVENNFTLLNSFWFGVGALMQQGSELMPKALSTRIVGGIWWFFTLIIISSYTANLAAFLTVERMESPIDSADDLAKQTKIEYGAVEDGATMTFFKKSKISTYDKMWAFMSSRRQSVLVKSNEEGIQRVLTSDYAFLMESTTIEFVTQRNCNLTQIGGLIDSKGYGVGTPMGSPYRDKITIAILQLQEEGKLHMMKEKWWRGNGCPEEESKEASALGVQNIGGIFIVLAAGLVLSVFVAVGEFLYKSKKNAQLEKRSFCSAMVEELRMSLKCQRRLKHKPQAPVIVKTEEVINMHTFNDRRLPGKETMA
UniProt Q62083, residues 22-105: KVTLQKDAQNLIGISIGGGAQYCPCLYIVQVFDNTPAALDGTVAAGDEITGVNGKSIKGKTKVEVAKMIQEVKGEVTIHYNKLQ

T1: Neto2 (native, mouse brain) (mouse (endogenous in cerebellum and whole brain)) (UniProt Q8BNJ6)
T1 sequence: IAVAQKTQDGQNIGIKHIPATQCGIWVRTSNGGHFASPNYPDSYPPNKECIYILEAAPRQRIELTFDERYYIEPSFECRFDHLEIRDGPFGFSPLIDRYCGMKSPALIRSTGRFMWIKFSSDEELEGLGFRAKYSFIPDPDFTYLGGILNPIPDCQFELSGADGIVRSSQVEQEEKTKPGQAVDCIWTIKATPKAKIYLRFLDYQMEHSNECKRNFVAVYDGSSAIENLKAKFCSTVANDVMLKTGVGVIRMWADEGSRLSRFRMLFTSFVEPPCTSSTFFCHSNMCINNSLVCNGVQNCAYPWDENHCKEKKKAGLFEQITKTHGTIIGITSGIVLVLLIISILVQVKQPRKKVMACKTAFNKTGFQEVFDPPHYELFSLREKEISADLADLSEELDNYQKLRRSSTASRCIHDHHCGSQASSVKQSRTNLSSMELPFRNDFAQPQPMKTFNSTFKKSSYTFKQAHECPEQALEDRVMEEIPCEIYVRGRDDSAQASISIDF

T2: Neto2 cytoplasmic domain (Neto2(CD), amino acids 368-525) fused to the GAL4 DNA-binding domain (mouse) (UniProt Q8BNJ6)
T2 sequence: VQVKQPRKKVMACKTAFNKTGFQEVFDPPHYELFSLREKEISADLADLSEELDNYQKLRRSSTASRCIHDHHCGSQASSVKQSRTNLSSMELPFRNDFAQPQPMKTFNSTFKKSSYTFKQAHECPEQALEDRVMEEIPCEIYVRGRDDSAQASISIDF


What was measured:
[1] = molecular target: T1, Neto2 (native, mouse brain) (mouse (endogenous in cerebellum and whole brain)); test: co-IP; mouse cerebellar lysates (wild-type; Neto2-null as control), immunoprecipitation with anti-Neto2 antibodies, immunoblot
[2] = molecular target: T2, Neto2 cytoplasmic domain (Neto2(CD), amino acids 368-525) fused to the GAL4 DNA-binding domain (mouse); test: two-hybrid; GAL4 DNA-binding domain fusions in pDBLeu, GAL4 activation domain fusions in pPC86, MaV203 cells; growth on -Trp/-Leu/-His and lacZ reporter (ß-galactosidase assay)
[3] = molecular target: FLAG-GluK2 (UniProt P42260); test: co-IP; COS-7 cells transfected with combinations of FLAG-GluK2, Neto2 or Neto2Δ7 and GRIP(PDZ4-7)-myc; lysates immunoprecipitated with an anti-GluK2 antibody, western blot

| binding [1] | Molecule | other results |
| --- | --- | --- |
| binds | GluK2 KAR subunit (native, mouse cerebellum) (from UniProt P39087 32-908) (receptor) | – |
| – | PDZ domain of PICK1 (two-hybrid prey) (from UniProt Q62083 22-105) (domain or fragment) | binding [2]: no binding |
| – | Full length mouse Neto2 (expressed in COS-7) (protein, UniProt Q8BNJ6 23-525) IAVAQKTQDGQNIGIKHIPATQCGIWVRTSNGGHFASPNYPDSYPPNKECIYILEAAPRQRIELTFDERYYIEPSFECRFDHLEIRDGPFGFSPLIDRYCGMKSPALIRSTGRFMWIKFSSDEELEGLGFRAKYSFIPDPDFTYLGGILNPIPDCQFELSGADGIVRSSQVEQEEKTKPGQAVDCIWTIKATPKAKIYLRFLDYQMEHSNECKRNFVAVYDGSSAIENLKAKFCSTVANDVMLKTGVGVIRMWADEGSRLSRFRMLFTSFVEPPCTSSTFFCHSNMCINNSLVCNGVQNCAYPWDENHCKEKKKAGLFEQITKTHGTIIGITSGIVLVLLIISILVQVKQPRKKVMACKTAFNKTGFQEVFDPPHYELFSLREKEISADLADLSEELDNYQKLRRSSTASRCIHDHHCGSQASSVKQSRTNLSSMELPFRNDFAQPQPMKTFNSTFKKSSYTFKQAHECPEQALEDRVMEEIPCEIYVRGRDDSAQASISIDF | binding [3]: binds |
| binds | GluK5 KAR subunit (native, mouse cerebellum) (receptor, UniProt Q61626 15-979) NPSCQVLSSLRMAAILDDQTVCGRGERLALALAREQINGIIEVPAKARVEVDIFELQRDSQYETTDTMCQILPKGVVSVLGPSSSPASASTVSHICGEKEIPHIKVGPEETPRLQYLRFASVSLYPSNEDVSLAVSRILKSFNYPSASLICAKAECLLRLEELVRGFLISKETLSVRMLDDSRDPTPLLKEIRDDKVSTIIIDANASISHLVLRKASELGMTSAFYKYILTTMDFPILHLDGIVEDSSNILGFSMFNTSHPFYPEFVRSLNMSWRENCEASTYPGPALSAALMFDAVHVVVSAVRELNRSQEIGVKPLACTSANIWPHGTSLMNYLRMVEYDGLTGRVEFNSKGQRTNYTLRILEKSRQGHREIGVWYSNRTLAMNATTLDINLSQTLANKTLVVTTILENPYVMRRPNFQALSGNERFEGFCVDMLRELAELLRFRYRLRLVEDGLYGAPEPNGSWTGMVGELINRKADLAVAAFTITAEREKVIDFSKPFMTLGISILYRVHMGRKPGYFSFLDPFSPAVWLFMLLAYLAVSCVLFLAARLSPYEWYNPHPCLRARPHILENQYTLGNSLWFPVGGFMQQGSEIMPRALSTRCVSGVWWAFTLIIISSYTANLAAFLTVQRMEVPVESADDLADQTNIEYGTIHAGSTMTFFQNSRYQTYQRMWNYMQSKQPSVFVKSTEEGIARVLNSRYAFLLESTMNEYHRRLNCNLTQIGGLLDTKGYGIGMPLGSPFRDEITLAILQLQENNRLEILKRKWWEGGRCPKEEDHRAKGLGMENIGGIFVVLICGLIIAVFVAVMEFIWSTRRSAESEEVSVCQEMLQELRHAVSCRKTSRSRRRRRPGGPSRALLSLRAVREMRLSNGKLYSAGAGGDAGAHGGPQRLLDDPGPPGGPRPQAPTPCTHVRVCQECRRIQALRASGAGAPPRGLGTPAEATSPPRPRPGPTGPRELTEHE | – |
